Experimental data published in paper PMC10163288.
The list shows a part of the results.

B1: il10ra_site1_sap_24_mot_HHH_b1_06912_af2_000000235_0001_1_15_H_._HHH_b1_00741_0001_0000200006_0000001_0_0001 (protein)
chain: SSSSDEVEERVEELLERAQKIEDPDERYRLLEEAIKLAIENRDEEAEKLVHEVLRELMHKSSSSS
B2: il10ra_site1_sap_20_mot_HHH_b1_02665_000000293_0001_1_18_H_._HHH_b1_08612_0001_0000300026_0000001_0_0001 (protein)
chain: SSSSSDAAHEIYRLLKEAAELAANGNPEEAEKVLEEARELAEEANNRVLAVVVEFLLRRLSSSSS
B3: il10ra_site1_sap_18_mot_HHH_b2_00479_000000091_0001_1_12_H_._HHH_b2_07514_0001_0000100013_0000001_0_0001 (protein)
chain: DKLTEAAARLLRRLRDPELLRKVDRITIALYEGEIPPEEVIELLKEVAEELGDPEVERLIEELKR
B4: il10ra_site1_normal_mot_HHH_b2_00612_000000251_0001_1_14_H_._HHH_b1_08403_0001_0000400019_0000001_0 (protein)
chain: SSSSSNEEYFREVRELLEEASEIDDPEERQEVLREALELAEEGNNQLLFESVEYLLRLEESSSSS
B5: il10ra_site1_sap_21_mot_HHH_b2_02337_000000026_0001_38_52_H_._HHH_b1_04531_0002_0000100002_0000001_0_0001 (protein)
chain: SSSSSSSEEERAEELLEEAKEIEDPKERNEVLLEALRLAIQLQDPELLRLVWRVVHELSSSSSSS
B6: il10ra_site1_sap_25_mot_HHH_b1_05757_000000171_0001_42_57_H_._HHH_b1_04495_0001_0000100001_0000001_0_0001 (protein)
chain: SSSSDEWYREVKEIIERIIELLRRGNKEEAEELLERLEELAEEANTPSLEFAVRLLQRELNSSSS
B7: il10ra_site1_normal_mot_15066a8f41c19a04ca9a9f0a9d91fe83_0001_000000267_0001_1_12_H_._5560783f366cbf3ae937180e39aeb462_0001_af2_0001_0000600014_0000001_0 (protein)
chain: DELEELLREAEELGDEDVVEVAEKLLELVRRGEIPPQNVEALEYILEFALKGDPNAKAIVRAFLR
B8: il10ra_site1_sap_18_mot_HHH_b2_02053_af2_000000006_0001_3_19_H_._HHH_b1_04063_0001_0000800036_0000001_0_0001 (protein)
chain: SSSSDISQEIYELLREAAELHHDGNPEEARKVLEEAEELAEEAGSPNLEEIIEFLLRKVNSSSSS
B9: il10ra_site1_normal_mot_HHH_b2_02736_000000092_0001_22_38_H_._HHH_b1_05779_af2_0001_0000300011_0000001_0 (protein)
chain: SSSSDEIAQQIYELLRRVIELHAEGNPEEAREVLEEAKELAEEANNEVLLHIVEFLEELLSSSSS
B10: il10ra_site1_normal_mot_HHH_b2_00441_000000147_0001_1_18_H_._HHH_b1_01824_0001_0000200015_0000001_0 (protein)
chain: SSSSSEEERRYVELALRFVRLLFKDNEEVAEHLLRLMIQTLERLGDEELIRLLQELLEEISSSSS
B11: il10ra_site1_sap_15_mot_HHH_b1_03653_af2_000000109_0001_1_20_H_._HHH_b1_05348_0001_0000100001_0000001_1_0001 (protein)
chain: SSSSDVEERLEELLKELEELVEEGDTEKFARVAQEAVRLAFRAQDEEVLQRLWELVKELASSSSS
B12: il10ra_site1_normal_mot_3af0db62db2b275566dae2e03bf881fa_0001_000000003_0001_37_50_H_._HHH_b1_07841_0001_0000400021_0000001_0_af2pred_0001 (protein)
chain: SSSSSDRHLRERARAQLRYAELAENPLVARIALEIALKLAEEVNDEELEEEIRRLLEELNSSSSS
B13: il10ra_site1_sap_23_mot_0e2ed5c3f75edde9391a46279eb78c18_0001_000000219_0001_53_65_H_._HHH_b1_07215_af2_0001_0000200011_0000001_0_0001_af2pred_0001 (protein)
chain: DDEEIKERIKREGDPRLNLLSLALFLLKRGVPPRQVELAVKSNAKLLGVPPEEVEELIEEAKELK
B14: il10ra_site1_normal_mot_HHH_b1_01082_af2_000000031_0001_3_19_H_._HHH_b2_07681_0001_0000100003_0000001_0 (protein)
chain: SSSSDEEYEEVKRLIEEIVRLIREGNPEEARKLLEELEELAEETNNPALKFVVELLERDINSSSS
B15: il10ra_site1_normal_mot_HHH_b1_05357_000000034_0001_23_39_H_._HHH_b2_03085_af2_0001_0000400017_0000001_0_af2pred_0001 (protein)
chain: SSSSSEILERVSYLLVRIYALLNSGDHEEAEELEEEVKKVAEEGNDERAKVLIEAFERVISSSSS
B16: il10ra_site1_sap_16_mot_HHH_b2_00369_000000164_0001_40_55_H_._8679c99a27c02dac6322965991044887_0001_0001_0000500022_0000001_0_0001 (protein)
chain: SSSSSEDRELIEAALRLARQAYEWGDPESVRALLWAAQFLAEEINDPELEEKIEELEEELSSSSS
B17: il10ra_site1_sap_25_mot_HHH_b1_05185_000000011_0001_22_39_H_._HHH_b2_08085_0001_0000600021_0000001_0_0001 (protein)
chain: SSSSDEEYEERIRELLEEAEELEDPEERIRLLLEAVRLAYEVNDEELLQLVWEVAKKLGGSSSSS
B18: il10ra_site1_sap_17_mot_HHH_b2_02463_af2_000000222_0001_1_19_H_._HHH_b1_05597_0001_0000400019_0000001_0_0001 (protein)
chain: SSSSDEEAQRLFQAVWELVKRGDEEELEKLLEEIEKLLEEDPRLRKNLRMAAAAARAFLRSSSSS
B19: il10ra_site1_normal_mot_8756ee2cf497b5429c717dfc0c0bcfd6_0001_000000186_0001_1_13_H_._HHH_b1_01984_af2_0001_0000500012_0000001_0_af2pred_0001 (protein)
chain: SSSSSDIKELFELLRRIAELLHEGDEEEAEELIRQAKEIAEELNNLVAEAILRFLEKHLDSSSSS
B20: il10ra_site1_normal_mot_HHH_b2_08186_000000021_0001_43_56_H_._HHH_b1_01436_0001_0000300037_0000001_0 (protein)
chain: SSSSDEEEEEIRRLLEELEELIREGDHEKVAELALRILRLIFEASNEELLKILWRLLKEFGSSSS
B21: il10ra_site1_normal_mot_HHH_b2_00479_000000091_0001_1_12_H_._HHH_b2_01146_0001_0000600069_0000002_0 (protein)
chain: SSSSSDADEIYELLREALELLANGNPEEARKVLEEAEELAEEAGNFTFEFAIRTLQREANSSSSS
B22: il10ra_site1_sap_16_mot_HHH_b2_06480_000000127_0001_1_19_H_._HHH_b1_07210_0001_0000100002_0000001_0_0001 (protein)
chain: SSSSDMEEYIELSLRFAEWLLEAGDPEAARRILEAARDAAEKINNEELKEEIERLQEEVRSSSSS
B23: il10ra_site1_sap_16_mot_HHH_b2_00943_af2_000000149_0001_1_17_H_._HHH_b2_07075_0001_0000400028_0000002_0_0001 (protein)
chain: SSSSSEEKERIEELIEEAERLLENGDPRRAVRVLAEAVRHAHRISDEELLQELWEIIKKVESSSS
B24: il10ra_site1_normal_mot_HHH_b1_07641_af2_000000285_0001_1_21_H_._HHH_b1_03085_af2_0001_0000100001_0000001_0_af2pred_0001 (protein)
chain: SSSSDTEEAQRLLREAVELLREGNPEEAREIAEEALKLAEEAGNVALAWSIRYLLEIIERLSSSS
B25: il10ra_site1_normal_mot_HHH_b2_05813_000000266_0001_1_19_H_._HHH_b1_02684_0001_0000500010_0000001_0_af2pred_0001 (protein)
chain: SSSSSSEEFLFEVLVEARRLLEKGNPEEAQEVIEEAREHAEERNDEHVLLILEAALRILESSSSS
B26: il10ra_site1_sap_27_mot_HHH_b2_08186_000000021_0001_43_56_H_._HHH_b2_01381_0001_0000600034_0000001_0_0001 (protein)
chain: SSSSDEAYEIAREAAEKANQLWEQGNEEEARELIEEALEELEKLGNWAALWALRHMLRANSSSSS
B27: il10ra_site1_normal_mot_HHH_b2_05423_000000119_0001_22_38_H_._HHH_b2_02720_0001_0000400043_0000001_1_af2pred_0001 (protein)
chain: SSSSSEEELLKRLLEAVKRAAEQNDPHRVEAALRDAKHTAEFLNDEEVLEELERLEEEFNSSSSS
B28: il10ra_site1_sap_22_mot_HHH_b1_00169_000000276_0001_1_18_H_._HHH_b1_00842_0001_0000200007_0000001_0_0001 (protein)
chain: SSSSDEEREELYEILEEVIKLASEGDEEEFEELVREAEELAKELGNWVVRHVLELLRRDLSSSSS
B29: il10ra_site1_normal_mot_HHH_b1_00999_000000080_0001_41_55_H_._HHH_b1_00228_0001_0000300021_0000001_0 (protein)
chain: SSSSDVEEEVEELLEEAKEIPDPRELSRVLLEALRLALEASDQELLQLVWRVVKELGERLSSSSS
B30: il10ra_site1_normal_mot_HHH_b2_03220_af2_000000223_0001_23_40_H_._HHH_b1_01064_0001_0000400033_0000002_0 (protein)
chain: SSSSSEERERVWELIRRVLELRAQGDPEEARELLEEARELAEEANSPVLRFALRLLEEQLSSSSS
B31: il10ra_site1_sap_18_mot_HHH_b1_06341_af2_000000167_0001_17_35_H_._HHH_b2_05323_0001_0000300018_0000001_0_0001 (protein)
chain: SSSSDEAEELYRLSEEAMELAAEGNPEEAREVVREAIELAEEANNRVLLFVLRHVLEQLESSSSS
B32: il10ra_site1_sap_12_mot_HHH_b2_07532_000000061_0001_23_39_H_._HHH_b2_03266_0001_0000500042_0000001_0_0001 (protein)
chain: SSSSDEREAYELSREAAELDSEGDPEKAEEVLEEALELAEELNNMNIVMVIRYILRLVRENSSSS
B33: il10ra_site1_sap_26_mot_HHH_b2_03183_af2_000000055_0001_40_56_H_._HHH_b1_06195_0001_0000200011_0000001_1_0001_af2pred_0001 (protein)
chain: SSSSDLVEEVKRLLEEALKLLKEGDEEEARRLVEEAKELAERNNNLLLLRSIEAIERVVNSSSSS
B34: il10ra_site1_sap_16_mot_HHH_b1_06048_000000117_0001_42_56_H_._HHH_b1_00210_0001_0000200020_0000001_0_0001 (protein)
chain: SSSSDEAYRLAKRAIEEATRLWREGNPEEARRLLQEALEELEELGNWAAVWAIRHLLKALSSSSS
B35: il10ra_site1_sap_4_mot_HHH_b2_01447_af2_000000258_0001_1_20_H_._HHH_b1_07772_0001_0000100001_0000002_0_0001 (protein)
chain: SSSSDTRELYRLSREAMELLARGNPEEAEKVLEEAIEIAREAGDFNFLFNLEHVLKVIEQSSSSS
B36: il10ra_site1_normal_mot_HHH_b2_05896_000000051_0001_1_18_H_._HHH_b1_01447_0001_0000400020_0000001_0 (protein)
chain: SSSSSSDEEFRKILELIEKASQIEDPEERREVLEEAEELAEEAGNELLEESVRFVARLLSSSSSS
B37: il10ra_site1_normal_mot_HHH_b2_00441_000000147_0001_1_18_H_._HHH_b1_01947_af2_0001_0000200006_0000001_1_af2pred_0001 (protein)
chain: SSSSSERDREFARRALRLAEFLYKQGDHEAVERAFEAVEDLAKLTNDPEIEEILEEIEELLSSSS

These binders were tested against il10ra, Q13651 (assay: yeast display titration).

Apparent Kd, inactive:
B1 no binding seen
B2 no binding seen
B3 no binding seen
B4 no binding seen
B5 no binding seen
B6 no binding seen
B7 no binding seen
B8 no binding seen
B9 no binding seen
B10 no binding seen
B11 no binding seen
B12 no binding seen
B13 no binding seen
B14 no binding seen
B15 no binding seen
B16 no binding seen
B17 no binding seen
B18 no binding seen
B19 no binding seen
B20 no binding seen
B21 no binding seen
B22 no binding seen
B23 no binding seen
B24 no binding seen
B25 no binding seen
B26 no binding seen
B27 no binding seen
B28 no binding seen
B29 no binding seen
B30 no binding seen
B31 no binding seen
B32 no binding seen
B33 no binding seen
B34 no binding seen
B35 no binding seen
B36 no binding seen
B37 no binding seen

Pulled one by one from the list above (two):
Apparent Kd, inactive:
B23 no binding seen
B6 no binding seen
